Values of other authors in patent US20200330541A1, “COMPOSITIONS AND METHODS FOR MODULATING ENDOTHELIAL CELL MIGRATION AND ANGIOGENESIS” (University of Maine System Board of Trustees, priority 2017, published 2020).
At least one structure is not confirmed: it was looked up by name or label, or the drawing left a doubt.

Tests used:
[1] = system: HUVECs
[2] = system: endothelial cell; conditions: through the JAK/STAT3 and MAPK signaling pathways
[3] = system: smooth muscle cell

## Oc1cc(O)c2cc(O)c(-c3cc(O)c(O)c(O)c3)[o+]c2c1 [Delphinidin]
[1]
  VEGF-induced tube formation of HUVECS: increase
[2]
  endothelial cell migration, proliferation, and tubulogenesis: inhibited

## Oc1ccc(-c2[o+]c3cc(O)cc(O)c3cc2O)cc1 [pelargonidin]
[3]
  cell proliferation and smooth muscle cell migration: inhibitory effect
